Reference: the supplement of paper PMC10689618
Structures can show the parent of a compound that is named as a salt. Some of the results follow. Single values are uncertain, as repeats are few or missing.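 Primary human fetal astrocytes engulfed labelled rat cortical synaptosomes, measured as a red/green ratio corrected for calcein live-cell signal and scaled to the plate median. Toxicity meant calcein falling over 30%; decreased phagocytosis meant below 70% of median above 5 µM.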

Assays:
[1] = test system: Human fetal astrocytes; test: loss of total cells relative to no-compound high-control median (toxicity); higher = more toxic (fewer cells); conditions: 24 h
[2] = test system: Human fetal astrocytes; test: synaptosome phagocytosis (pHrodo/calcein intensity ratio) relative to plate median of data wells; higher = more phagocytosis; conditions: 24 h

Structure (SMILES) | loss of total cells ([1]; 1.39 µM) | loss of total cells ([1]; 2.78 µM) | loss of total cells ([1]; 5.56 µM) | loss of total cells ([1]; 11.11 µM) | loss of total cells ([1]; 22.22 µM) | synaptosome phagocytosis ([2]; 1.39 µM) | synaptosome phagocytosis ([2]; 2.78 µM) | synaptosome phagocytosis ([2]; 5.56 µM) | synaptosome phagocytosis ([2]; 11.11 µM) | synaptosome phagocytosis ([2]; 22.22 µM)
CC1(C)OC(=O)NC1=O | 13.9% | -4.4% | -6.3% | 19.9% | -28.3% | 120% | 160% | 123% | 126% | 103%
O[C@H]1[C@H]2c3cc4c(cc3CN3CCC(=C[C@@H]1O)[C@H]23)OCO4 | -8.3% | -4.7% | 33.6% | 39.4% | 4.8% | 88% | 81.5% | 94.4% | 74.6% | 87.2%
CC(=O)Nc1ccccc1 | -30.7% | -3.4% | -3.9% | -7% | -7.9% | 87.8% | 68.3% | 102% | 85% | 101%
CC1Cc2ccccc2N1NC(=O)c1ccc(Cl)c(S(N)(=O)=O)c1 (stereo not given) | 6.2% | -3.1% | -16% | 18.2% | -19.8% | 90.1% | 124% | 117% | 62.4% | 75.1%
CC[C@H]1OC(=O)[C@H](C)[C@@H](O[C@H]2C[C@@](C)(OC)[C@@H](O)[C@H](C)O2)[C@H](C)[C@@H](O[C@@H]2O[C@H](C)C[C@H](N(C)C)[C@H]2O)[C@](C)(O)C[C@@H](C)[C@@H]2N[C@@H](COCCOC)O[C@H]([C@H]2C)[C@]1(C)O | -14.1% | -18.6% | -0.3% | -11.7% | 16.4% | 81.3% | 86.3% | 112% | 130% | 126%
NC[C@H]1CC[C@H](C(=O)O)CC1 | 14.9% | 2.1% | 17.1% | 0% | 17.6% | 113% | 95.3% | 118% | 90% | 106%
CC=CC1=C(C(=O)O)N2C(=O)[C@@H](NC(=O)[C@H](N)c3ccc(O)cc3)[C@H]2SC1 | -16.6% | -15.5% | -10.5% | -15.6% | -13.6% | 83.5% | 102% | 75.3% | 91.1% | 82.1%
Cc1c(C)c2c(c(C)c1O)CCC(C)(CCCC(C)CCCC(C)CCCC(C)C)O2 (stereo not drawn) [alpha-TOCHOPHEROL] | -17.4% | 8.8% | -6.9% | -26.6% | 14.2% | 89.3% | 90.9% | 99.1% | 116% | 133%
O=c1c(O)c(-c2ccc(O)c(O)c2)oc2cc(O)ccc12 | -13.9% | -20.6% | 19% | 16.2% | 14.8% | 109% | 46.2% | 124% | 70.9% | 99.3%
C[C@]12C=CC(=O)C=C1CC[C@@H]1[C@@H]2C(=O)C[C@@]2(C)[C@H]1CC[C@]2(O)C(=O)CO | -0.3% | -9.2% | 7% | -5.5% | 43.5% | 102% | 130% | 93% | 104% | 146%
CC(C(=O)O)c1ccc(-c2ccccc2)c(F)c1 (stereo not given) | -3.9% | -3.1% | -7% | -5.5% | 37.4% | 106% | 81.4% | 98.6% | 128% | 116%
OC(CCN1CCCCC1)(c1ccccc1)c1ccccc1 | 15.5% | 9% | 18.1% | -1.3% | 25% | 79.9% | 66.4% | 117% | 86% | 85.2%
NCCC(=O)N[C@@H](Cc1c[nH]cn1)C(=O)O | -8.2% | 1.1% | 8.8% | 18.9% | 3% | 85.6% | 132% | 132% | 138% | 131%
OC[C@@H](O)[C@@H](O[C@@H]1O[C@H](CO)[C@H](O)[C@H](O)[C@H]1O)[C@H](O)[C@@H](O)CO | 34.7% | -16.7% | 8.1% | 23.9% | 3.4% | 147% | 108% | 116% | 83% | 104%
CC(C)=CCC1=C(O)c2ccccc2C(=O)C1=O | 9.7% | 6.9% | 21% | 18% | 27.3% | 114% | 130% | 144% | 100% | 157%
CC[N+](C)(C)Cc1ccccc1Br | 25.8% | -19.8% | -1.2% | 40.3% | 2.8% | 116% | 89% | 93.9% | 124% | 124%
C[C@H](CCC(=O)O)[C@H]1CC[C@H]2[C@@H]3CC[C@@H]4C[C@H](O)CC[C@]4(C)[C@H]3C[C@H](O)[C@]12C | -2.5% | 5.3% | -8.4% | 27.7% | -3.3% | 103% | 93% | 105% | 122% | 107%
O=C(O[C@@H]1Cc2c(O)cc(O)cc2O[C@@H]1c1cc(O)c(O)c(O)c1)c1cc(O)c(O)c(O)c1 | -6.9% | 10.6% | -26% | 12.9% | 21.9% | 111% | 124% | 64.7% | 81.9% | 65.1%
Cc1c(N(C)CS(=O)(=O)O)c(=O)n(-c2ccccc2)n1C | -8.1% | -42.9% | 5% | 4.9% | 0.3% | 118% | 91.9% | 114% | 119% | 141%
COc1c(C)c2c(c(O)c1C/C=C(\C)CCC(=O)O)C(=O)OC2 | 10.4% | -4.4% | -11.1% | 7.8% | -8.2% | 105% | 87.1% | 89.6% | 84.5% | 95.1%

Structure (SMILES) | loss of total cells ([1]; 1.39 µM) | loss of total cells ([1]; 2.78 µM) | loss of total cells ([1]; 5.56 µM) | loss of total cells ([1]; 11.11 µM) | loss of total cells ([1]; 22.22 µM) | synaptosome phagocytosis ([2]; 1.39 µM) | synaptosome phagocytosis ([2]; 2.78 µM) | synaptosome phagocytosis ([2]; 5.56 µM) | synaptosome phagocytosis ([2]; 11.11 µM) | synaptosome phagocytosis ([2]; 22.22 µM)
COc1ccc2c(=O)c(OC)c(-c3ccccc3)oc2c1 | -15.6% | -6.1% | 4.4% | 0% | -1.5% | 77.4% | 85.3% | 87% | 79.9% | 111%
CCCCCCc1ccc(O)cc1O | 14.5% | 10.5% | -4.2% | 13.5% | 35.6% | 90.7% | 119% | 71.8% | 97.2% | 59.1%
CC[C@H](C)[C@H](N)C1=N[C@H](C(=O)N[C@@H](CC(C)C)C(=O)N[C@H](CCC(=O)O)C(=O)N[C@H](C(=O)N[C@H]2CCCCNC(=O)[C@H](CC(N)=O)NC(=O)[C@@H](CC(=O)O)NC(=O)[C@H](Cc3cnc[nH]3)NC(=O)[C@@H](Cc3ccccc3)NC(=O)[C@H]([C@@H](C)CC)NC(=O)[C@@H](CCCN)NC2=O)[C@@H](C)CC)CS1 | 0.8% | 0.3% | 9.9% | 1.6% | 7.4% | 90.2% | 101% | 105% | 125% | 102%
COc1ccc(-c2cc(C(F)F)nn2-c2ccc(S(N)(=O)=O)cc2)cc1F | -36.3% | -17.5% | 2.5% | 1% | -16.5% | 107% | 98.6% | 98.4% | 84% | 95.9%
CC(C)CCC[C@@H](C)[C@H]1CC[C@H]2[C@@H]3C(=O)C=C4C[C@@H](O)CC[C@]4(C)[C@H]3CC[C@]12C | -14.8% | 0.4% | 10.3% | 12.2% | -5.2% | 120% | 119% | 125% | 107% | 93.4%
COc1cc(O)cc(O)c1C(C)=O | 19.1% | 6.1% | 21.7% | 2.9% | 18.2% | 154% | 117% | 125% | 129% | 136%
Nc1ccc(S(=O)(=O)Nc2cnc3ccccc3n2)cc1 | -11.6% | 4% | -3.3% | -10.2% | -24.4% | 107% | 85.2% | 80.7% | 90.8% | 96.4%
CC(COc1ccccc1)N(CCCl)Cc1ccccc1 (stereo not given) [Phenoxybenzamine hydrochloride] | 4.1% | -4% | 17.1% | 14.1% | 27.2% | 108% | 94.1% | 97.8% | 51.7% | 70.9%
NS(=O)(=O)c1cc2c(cc1Cl)N=C(CSCc1ccccc1)NS2(=O)=O | -14.9% | 5.8% | -11.1% | 10.2% | -1.1% | 135% | 86% | 91.4% | 179% | 125%
O=P(O)(O)C(O)(Cc1cccnc1)P(=O)(O)O | -6.2% | -13.3% | 32.8% | -4.5% | 2.6% | 139% | 91.5% | 159% | 122% | 98.2%
CC(=O)O[C@H]1CC[C@]2(C)[C@H]3CC[C@@]4(C)[C@H](c5ccoc5)OC(=O)[C@H]5O[C@]54[C@]3(C)[C@H](OC(C)=O)C[C@H]2C1(C)C [3beta-ACETOXYDEOXODIHYDROGEDUNIN] | -6.9% | 13.3% | 0% | 34.2% | 4.1% | 109% | 110% | 80.8% | 83.5% | 128%
N[C@@H](Cc1cc(I)c(Oc2ccc(O)c(I)c2)c(I)c1)C(=O)O [LIOTHYRONINE (L- isomer) SODIUM] | 16.9% | -27% | 10.6% | 3.6% | 14.6% | 94.4% | 92.8% | 109% | 80.5% | 66.2%
O=c1c(O)c(-c2ccccc2)oc2cc(O)ccc12 | 0% | 0.4% | -13.2% | 11.5% | 0.7% | 105% | 85.3% | 97.2% | 103% | 106%
Nc1[nH]cnc2ncnc1-2 | 1.5% | -17.3% | -0.7% | -0.3% | -26.4% | 109% | 125% | 90.9% | 108% | 101%
O=C1[C@H](CC[C@H](O)c2ccc(F)cc2)[C@@H](c2ccc(O)cc2)N1c1ccc(F)cc1 | -37.9% | -16.7% | -0.6% | 5.6% | 4% | 127% | 96.5% | 95.6% | 98.5% | 105%
COc1ccc2c(c1)OC1(O)COc3cc(OC)c(OC)cc3C1=C2 (stereo not given) | -0.4% | 4% | -6.1% | 1.3% | -13% | 115% | 114% | 96.7% | 95.3% | 134%
O=C(Nc1ccc(C(=O)O)c(O)c1)c1ccccc1 | 11.3% | -31.7% | 1.2% | 37.7% | -3.4% | 147% | 133% | 87.5% | 158% | 74.3%
NS(=O)(=O)c1cc2c(cc1Cl)NC(C(Cl)Cl)NS2(=O)=O (stereo not given) | -3.9% | -2.4% | -14.6% | -7.2% | 20.4% | 124% | 112% | 144% | 102% | 122%
NC[C@@H]1O[C@H](O[C@H]2[C@@H](O)[C@H](O[C@@H]3[C@@H](O)[C@H](N)C[C@H](N)[C@H]3O[C@H]3O[C@H](CO)[C@@H](O)[C@H](O)[C@H]3N)O[C@@H]2CO)[C@H](N)[C@@H](O)[C@@H]1O | -32.3% | 32.5% | 5.6% | 46.9% | 19.6% | 62.9% | 125% | 65.5% | 134% | 119%

Full records as entered above. Order of values: loss of total cells ([1]; 1.39 µM)	loss of total cells ([1]; 2.78 µM)	loss of total cells ([1]; 5.56 µM)	loss of total cells ([1]; 11.11 µM)	loss of total cells ([1]; 22.22 µM)	synaptosome phagocytosis ([2]; 1.39 µM)	synaptosome phagocytosis ([2]; 2.78 µM)	synaptosome phagocytosis ([2]; 5.56 µM)	synaptosome phagocytosis ([2]; 11.11 µM)	synaptosome phagocytosis ([2]; 22.22 µM)
OC(CCN1CCCCC1)(c1ccccc1)c1ccccc1 as listed: 15.5%	9%	18.1%	-1.3%	25%	79.9%	66.4%	117%	86%	85.2%
NS(=O)(=O)c1cc2c(cc1Cl)N=C(CSCc1ccccc1)NS2(=O)=O as listed: -14.9%	5.8%	-11.1%	10.2%	-1.1%	135%	86%	91.4%	179%	125%
